Assay results from PubChem BioAssay AID504834 (National Center for Advancing Translational Sciences (NCATS), 2011).
Screen size: about 320,000 compounds; about 22,000 (6.9%) were called active. The inconclusive results got no clear call from the source; some entries with a clear call stand among them for comparison. Calls come from the whole dose curve; as a rule, active = well fitted inhibition curve with a large enough effect; inconclusive = small, poorly fitted or top-dose-only effect, or another doubt; inactive = no such curve, though single readings can be large or run the other way. Potencies of inconclusive entries are doubtful fits and often do not repeat.
% is set by controls: 0 for no effect and ±100 for the full control effect; potency is the fitted concentration of half-maximal effect.

Test: Primary qHTS for delayed death inhibitors of the malarial parasite plastid, 96 hour incubation
Conditions: P. falciparum luciferase reporter growth; series mostly up to 28.7 µM; activity change, negative = inhibition: at the top concentration
Procedure, shortened: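 P. falciparum expressing integrated firefly luciferase grown in erythrocytes (2% hematocrit, 0.05% parasitemia final) with compounds for 96 hours at 37 C, 5% CO2. Growth inhibition read as loss of luminescence after adding luciferase detection reagent.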
For Cc1ccc2oc(=O)c3cc(C(=O)N4CCN(C)CC4)sc3c2c1, the “activity change, negative = inhibition” value was inactive: 21.9%.
In the case of O=C(O)c1cc(NS(=O)(=O)c2cccs2)cc(NS(=O)(=O)c2cccs2)c1, the “activity change, negative = inhibition” value is reported as inactive: -3.32%.
In the case of COc1cc(N=c2ssnc2Cl)c(OC)cc1Cl, the Potency is reported as inconclusive: 18.5 µM [inhibitor, single point].
In the case of CC(C)C1CC(CCNCc2ccc3c(c2)OCO3)(c2ccccc2)CCO1 (configuration not stated), the Potency is reported as inconclusive: 18.5 µM [inhibitor, single point].
In the case of N=c1n(CCN2CCOCC2)c2ccccc2n1Cc1ccccc1Br, the “activity change, negative = inhibition” value is reported as inactive: -23%.
With CCOCCCNC(=O)c1c(C)c(C(=O)OCC)n(C)c1C the Potency was inconclusive: 16.5 µM [inhibitor, single point].
With CSCCC(NC(=O)c1ccccc1Br)C(=O)NCC(c1ccco1)N1CCCCC1 (configuration not stated) the Potency was active: 9.28 µM.
For COc1ccc(C(CNC(=O)COc2ccc([N+](=O)[O-])cc2)N2CCCCC2)cc1 (configuration not stated), the “activity change, negative = inhibition” value was inactive: -21.8%.
With CCOc1ccc2nc3c(cc2c1)CN(CCOC)C(=NC)S3 the Potency was active: 2.08 µM.
For CCCOc1ccc(-c2c(C(=O)N/N=C/c3cccnc3)nnn2-c2nonc2N)cc1, the “activity change, negative = inhibition” value was inactive: 14%.
For O=C(C1=NN(c2ccccc2)C2C(=O)N(c3ccccc3)C(=O)C12)c1ccccc1 (configuration not stated), the “activity change, negative = inhibition” value was inactive: 54.3%.
With Cn1c(CCc2nc3ccccc3[nH]2)nnc1SCC#N the “activity change, negative = inhibition” value was inactive: 11.1%.
With CC(=O)Nc1ccc(S(=O)(=O)NCc2csc(C)n2)cc1 the Potency was inconclusive: 13.1 µM [inhibitor, single point].
For COc1ccc(-c2cc(C(F)(F)F)n3nc(C(=O)O)nc3n2)cc1, the Potency was inconclusive: 20.8 µM [inhibitor, single point].
For CCN(CC)CCCN(C(=O)c1ccc(F)cc1)c1nc(-c2ccc(OC)cc2)cs1, the “activity change, negative = inhibition” value was inactive: 0%.
With O=C(CN1CCCC1)Nc1nnc(-c2cccs2)s1 the “activity change, negative = inhibition” value was inactive: -84.1%.
In the case of CCn1c(SCC(=O)NCCc2ccccc2)nc2sc3c(c2c1=O)CCN(C)C3, the Potency is reported as active: 0.37 µM.
In the case of Cc1c(N(C)CS(=O)(=O)O)c(=O)n(-c2ccccc2)n1C, the Potency is reported as “inactive”.
In the case of CCC1CCCCN1CCCNC(=O)C1CCN(c2nnc(-n3cccc3)s2)CC1 (configuration not stated), the Potency is reported as inconclusive: 18.5 µM [inhibitor, single point].
In the case of Cc1ccccc1-c1nc(CS(=O)(=O)CC(=O)NCCCN2CCN(C)CC2)c(C)o1, the Potency is reported as inconclusive: 16.5 µM [inhibitor, single point].
With COc1ccc(CCN2C(=O)c3ccccc3NC2c2cc(Cl)c(O)c(OC)c2)cc1 (configuration not stated) the Potency was active: 5.22 µM.
For CCOc1ccc(N2C(=O)CC(N3CCN(c4ccccc4OC)CC3)C2=O)cc1 (configuration not stated), the Potency was active: 2.62 µM.
In the case of Cc1ccc(CNC(=O)C(=O)c2cn(CC(=O)N3CCCC3)c3ccccc23)cc1, the Potency is reported as inconclusive: 3.29 µM [inhibitor, full curve].
With CCc1nc2c(cnn2-c2ccc(Cl)cc2)c(=O)n1-c1ccc2c(c1)OCCO2 the Potency was inconclusive: 2.08 µM [inhibitor, full curve, poor fit].
With Nc1c(C(=O)CSc2nccn2-c2ccc(Cl)cc2)c(=O)[nH]c(=O)n1C1CC1 the Potency was inconclusive: 9.28 µM [inhibitor, partial curve, poor fit].
For C[C@@H](NC(=O)c1[nH]cnc1C(=O)Nc1nccs1)c1ccccc1, the Potency was inconclusive: 4.15 µM [inhibitor, partial curve, poor fit].
In the case of O=S(=O)(NCCS(=O)(=O)N1CCN(c2ccccc2)CC1)c1ccc(F)cc1, the “activity change, negative = inhibition” value is reported as inactive: -0.305%.
With C/C(=N\NC(=O)Cc1ccc(Br)cc1)c1cccnc1 the “activity change, negative = inhibition” value was inactive: -24.8%.
For C/C(=N/Nc1ccccc1C(=O)O)c1cccs1, the Potency was inconclusive: 18.5 µM [inhibitor, single point].
With COc1ccc(OC)c(N(CC(=O)N2CCCCC2)S(=O)(=O)c2ccc(OC)c(OC)c2)c1 the Potency was inconclusive: 10.4 µM [inhibitor, partial curve, poor fit].
With CN(C)CCCNS(=O)(=O)c1ccc(Cl)s1 the Potency was inconclusive: 5.86 µM [inhibitor, partial curve, poor fit].
In the case of NC(=O)c1ccc(F)cc1, the “activity change, negative = inhibition” value is reported as inactive: 9.61%.
With CC(C)[C@H](NC(=O)Cc1ccccc1)C(=O)OCc1cc(=O)n2c(n1)sc1ccccc12 the Potency was inconclusive: 3.7 µM [inhibitor, partial curve, poor fit].
With CSc1oc(-c2cccs2)nc1S(=O)(=O)c1ccccc1 the “activity change, negative = inhibition” value was inactive: -4.16%.
With O=C(NC1(Cc2ccccc2)CCN(CCCc2ccccc2)C1=O)c1ccccc1 (configuration not stated) the “activity change, negative = inhibition” value was inactive: -14.1%.
With CC1(C)Cc2c(cnn2-c2cccc(F)c2)C(NC(=O)c2cc[n+]([O-])cc2)C1 (configuration not stated) the Potency was inconclusive: 18.5 µM [inhibitor, single point].
For O=C(CCN1C(=O)c2ccccc2C1=O)Nc1ccc(F)cc1, the Potency was inconclusive: 18.5 µM [inhibitor, single point].
With COc1ccc(N2C(=O)CS/C2=C\[N+](=O)[O-])cc1 the Potency was inconclusive: 0.465 µM [inhibitor, full curve, poor fit].
With CC1=CC2=NC(=O)/C(=C\c3ccc(-c4ccc(Cl)cc4)o3)C(=N)N2O1 the Potency was inconclusive: 18.5 µM [inhibitor, single point].
For Cc1[nH]c(=O)[nH]c(=O)c1S(=O)(=O)Nc1cccc(C(F)(F)F)c1, the Potency was inconclusive: 10.4 µM [inhibitor, partial curve].
In the case of CCC(C)(C)n1nnnc1C(c1cc2cccc(C)c2[nH]c1=O)N1CCCC1 (configuration not stated), the “activity change, negative = inhibition” value is reported as inactive: -8.48%.
In the case of COc1ccc(/C=C2/SC(=O)N(CCNC(=O)CC(NC(C)=O)c3ccccc3)C2=O)cc1 (configuration not stated), the Potency is reported as inconclusive: 18.5 µM [inhibitor, single point].
For COc1ccc(C(=O)Nc2nnc(CCc3ccccc3)s2)c(OC)c1, the Potency was inconclusive: 14.7 µM [inhibitor, single point].
For CCOC(=O)c1c(/N=C/c2cccc([N+](=O)[O-])c2O)sc(C)c1C, the Potency was inconclusive: 18.5 µM [inhibitor, single point].
With COc1ccc2[nH]c(C(=O)Nc3ccc4c(c3)OCO4)cc2c1 the “activity change, negative = inhibition” value was inactive: 37.6%.
For O=C(O)c1cc(N/N=C/c2cccnc2)ccc1Cl, the “activity change, negative = inhibition” value was inactive: 305%.
With O=C(Oc1ccc(Cl)c2cccnc12)c1cccnc1 the Potency was inconclusive: 10.4 µM [inhibitor, single point].
